Laboratory results: PubChem BioAssay AID1159594 (NIAID, 2016)
Purpose: 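Mapping how TLR pathway genes contribute to TLR2/6 signalling in macrophage-like cells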. Cells: human THP-1 B5 reporter cells, PMA-differentiated into macrophage-like cells. Reagents: single siRNA against human genes. Time to read-out: 48 to 72 hours after siRNA transfection; ligand exposure 4 hours. Conditions: Pam2CSK4 (TLR2/6 agonist) stimulation for 4 hours before lysis; dose not given. Detection: 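Robust z-score, relative to negative controls, of the firefly/renilla ratio from a TNF promoter reporter, after per-plate median/MAD scaling, mean of replicate screens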. Direction: TNF reporter z-score: higher = stronger TNF promoter reporter activity. Active means: 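The depositor sorts siRNAs into z-score bands with cut-offs of 2.5, 2, 1.5 and 1; grade 50 and above, meaning |z| of 1.5 or more, counts as active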. Calls: active = z-score beyond ±1.5 (either direction); inactive = z-score within ±1.5.
Shown is one part, drawn at random, of 756 deposited reagents. In the full data, 130 (17%) are marked active. 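Active calls cover both falls and rises of reporter activity; each row reflects one siRNA, not a gene-level verdict.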 A number with no mark means an inactive call. Reagents against one gene are numbered here. No sequences are given here. The record does not give: the amount of reagent.

TNF reporter z-score, replicate mean, by gene and reagent
MAPK13 (mitogen-activated protein kinase 13): #1 -1.96 (active); #2 -1.66 (active); #3 -2.11 (active); #4 0.447; #5 -0.959; #6 -1.63 (active)
NFKB2 (nuclear factor kappa B subunit 2): #1 -0.103; #2 -0.48; #3 1.49; #4 0.0941; #5 -2.52 (active); #6 -0.0557
EGR1 (early growth response 1): #1 -2.8 (active); #2 -2.42 (active); #3 -1.18; #4 -0.97; #5 -0.509; #6 -0.883
MAPK1 (mitogen-activated protein kinase 1): #1 -0.0715; #2 -1.32; #3 -0.839; #4 -0.192; #5 -1.07; #6 -0.34
ETS1 (ETS proto-oncogene 1, transcription factor): #1 -0.22; #2 -1.35; #3 -0.617; #4 -0.0105; #5 0.885; #6 -1.54 (active)
MAPK9 (mitogen-activated protein kinase 9): #1 -0.458; #2 -0.537; #3 -0.349; #4 1.57 (active); #5 -0.688; #6 -0.483
PIK3R1 (phosphoinositide-3-kinase regulatory subunit 1): #1 -0.817; #2 0.00349; #3 0.594; #4 0.651; #5 -1.7 (active); #6 0.362
TNFAIP3 (TNF alpha induced protein 3): #1 -0.549; #2 -0.166; #3 -1.15; #4 -1.07; #5 0.259; #6 -1.73 (active)
JUN (Jun proto-oncogene, AP-1 transcription factor subunit): #1 -1.8 (active); #2 -3.33 (active); #3 -0.75; #4 -0.219; #5 -1.16; #6 0.709
MAPK10 (mitogen-activated protein kinase 10): #1 -0.883; #2 0.00604; #3 -0.441; #4 -0.0274; #5 0.388; #6 -0.00543
CYLD (CYLD lysine 63 deubiquitinase): #1 0.362; #2 -0.835; #3 0.895; #4 0.0904; #5 0.202; #6 -1.12
MAP3K1 (mitogen-activated protein kinase kinase kinase 1): #1 -0.431; #2 -0.446; #3 -0.0689; #4 -2.94 (active); #5 -0.408; #6 -1
TLR4 (toll like receptor 4): #1 -0.634; #2 -0.339; #3 0.44; #4 0.231; #5 -1.16; #6 -0.488
FADD (Fas associated via death domain): #1 0.993; #2 -0.368; #3 -0.814; #4 -0.798; #5 0.311; #6 -1.56 (active)
TAB2 (TGF-beta activated kinase 1 (MAP3K7) binding protein 2): #1 0.798; #2 -0.381; #3 -2.4 (active); #4 -3.12 (active); #5 -5.03 (active); #6 -1.7 (active)

Records listed so far whose gene name begins with F or f:
TNF reporter z-score, replicate mean, by gene and reagent
FADD (Fas associated via death domain): #1 0.993; #2 -0.368; #3 -0.814; #4 -0.798; #5 0.311; #6 -1.56 (active)

The list goes on:
TNF reporter z-score, replicate mean, by gene and reagent
CD14 (CD14 molecule): #1 0.517; #2 0.156; #3 0.558; #4 -0.608; #5 -1.45; #6 -0.106
STAT1 (signal transducer and activator of transcription 1): #1 0.284; #2 -0.604; #3 -3 (active); #4 -0.184; #5 0.586; #6 0.437
LY86 (lymphocyte antigen 86): #1 0.31; #2 -0.107; #3 0.000125; #4 -1.08; #5 -0.449; #6 0.146
TICAM2 (TIR domain containing adaptor molecule 2): #1 -0.202; #2 -0.14; #3 -0.0198; #4 0.491; #5 -0.879; #6 -1.06
TAB3 (TGF-beta activated kinase 1 (MAP3K7) binding protein 3): #1 -0.31; #2 0.726; #3 -0.0429; #4 0.339; #5 0.289; #6 -0.989
TBK1 (TANK binding kinase 1): #1 -0.972; #2 -1.32; #3 0.576; #4 0.283; #5 -0.966; #6 -0.794
CREBBP (CREB binding lysine acetyltransferase): #1 -0.358; #2 0.0469; #3 -0.277; #4 0.546; #5 0.6; #6 0.0678
MAP3K8 (mitogen-activated protein kinase kinase kinase 8): #1 -1.94 (active); #2 -1.99 (active); #3 -2.79 (active); #4 -1.4; #5 -2.25 (active); #6 -1.51 (active)
MAP3K7 (mitogen-activated protein kinase kinase kinase 7): #1 -2.34 (active); #2 -3.47 (active); #3 -5.1 (active); #4 -2.37 (active); #5 -4.93 (active); #6 -3.52 (active)
